Test results published in PubChem BioAssay AID624297 (National Center for Advancing Translational Sciences (NCATS), 2012).
Hit rate of the full screen: of about 340,000 compounds, about 6,200 (1.8%) were called active. Inconclusive results, whose numbers are uncertain, are shown with a selection of clear calls. Calls follow the shape of the dose curve; as a rule, active = well fitted activation curve with a large enough effect; inconclusive = small, poorly fitted or top-dose-only effect; inactive = no such curve, though single readings can be large or run the other way. A potency beside an inconclusive call is a rough fit, not a confirmed value.
Potency is read from the fitted curve at half-maximal effect.

Experiment: A quantitative high throughput screen for small molecules that induce DNA re-replication in SW480 colon adenocarcinoma cells. Also: nearly all actives have a fitted effect of over 55% in size. As to re-replication activation: % of control where 0% means no effect.
Conditions: Hoechst DNA content imaging, 48 h; re-replication activation: at 46.1 µM (top of the series) unless noted
Summary of the method: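 Treated cells incubate 48 hr (37 C, 5% CO2), are stained 40 min with Hoechst, and nuclear fluorescence is enumerated; a rise in nuclei with high DNA signal marks re-replication.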
With `Nc1ccc2[nH]c(=S)sc2c1` the Potency was inconclusive: 29.1 µM [activator, single point]. In the case of `COc1ccc(NC(=O)CC2C(=O)NCCN2C(=O)Nc2ccc(C(F)(F)F)cc2)cc1` (stereo not given), the Potency is reported as inconclusive: 18.4 µM [activator, single point]. For `N#CCCN(Cc1ccccc1)C(=S)NC(=O)c1ccccc1`, the Potency was inconclusive: 18.4 µM [activator, single point]. For `Cc1cc2c(cc1C)C(c1cc(Br)ccc1F)CC(=O)N2` (stereo not given), the Potency was inconclusive: 29.1 µM [activator, single point]. With `O=C(COc1c(Br)cc(Br)c2cccnc12)N1CCc2ccccc2C1` the “re-replication activation” value was inactive: 0.384%. For `CC(C)CCn1c(-c2nonc2N)nc2ccccc21`, the Potency was inconclusive: 18.4 µM [activator, single point]. With `CCc1nnc(NC(=O)CCC(=O)NCc2ccc(OC)cc2)s1` the “re-replication activation” value was inactive: -22.3%. For `NC(=O)c1ccsc1NC(=O)COC(=O)c1ccc(Cl)cc1`, the “re-replication activation” value was inactive: -18.7%. For `Cc1ccc(NC(=O)COC(=O)c2ccc(Br)o2)cc1S(=O)(=O)N1CCCCC1`, the Potency was inconclusive: 18.4 µM [activator, single point]. In the case of `CC(C)S(=O)(=O)c1csc(NC(=O)Nc2ccc(Cl)cc2)c1Cl`, the Potency is reported as inconclusive: 29.1 µM [activator, partial curve, poor fit]. In the case of `COc1ccc(N(CC(=O)N2CCN(c3ccccc3F)CC2)S(=O)(=O)c2ccc(C)cc2)cc1`, the Potency is reported as inconclusive: 16.4 µM [activator, partial curve, poor fit]. For `CC(C)(C)c1ccc(C(=O)c2cn[nH]c2-c2ccccc2O)cc1`, the Potency was inconclusive: 29.1 µM [activator, partial curve, poor fit]. For `O=C(COC(=O)CNC(=O)c1ccccc1)NCCNC(=O)COC(=O)CNC(=O)c1ccccc1`, the “re-replication activation” value was inactive: -4.36%. For `COc1ccccc1C1=NC(c2ccccc2)CN1c1ccccc1` (stereo not given), the Potency was active: 6.51 µM. With `COc1ccc(/C=C/C(=O)Oc2cccc(/C=N/NC(=O)COc3c(C)cccc3C)c2)cc1` the “re-replication activation” value was inactive: -3.7%. For `CCOC(=O)c1c(N)sc(C(N)=O)c1C`, the “re-replication activation” value was inactive: -15.9%. In the case of `COc1ccc(C2C(Oc3ccccc3)C(=O)N2c2ccc(C)c(C)c2)cc1OC` (stereo not given), the re-replication activation is reported as inactive: -3.01% [at 9.22 µM]. For `Cc1ccc(Sc2ccc(/C=N/O)cc2[N+](=O)[O-])cc1`, the Potency was inconclusive: 29.1 µM [activator, single point]. With `COc1cc(/C=N/N2CCN(C3c4ccccc4-c4ccccc43)CC2)ccc1O` the Potency was inconclusive: 25.9 µM [activator, single point]. For `CCOC(=O)c1ccc(NC(=O)CCc2nc(-c3ccc(Cl)cc3)no2)cc1`, the Potency was inconclusive: 32.6 µM [activator, partial curve, poor fit].
